Where a name gives a salt, the structure may show the parent alone. Some of the results follow. Single values are uncertain here, since repeats match poorly.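 Human kidney-derived cells stably carry a construct in which eight TEAD-binding elements drive luciferase, measured by luminescence in a drug-repurposing library screen. A hit is any compound whose signal exceeds the plate mean by more than five robust Z scores.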
System: HEK293A TEAD-LUC reporter
Assay: TEAD-luciferase reporter activity (YAP activation), robust Z score vs plate; higher = stronger YAP/TEAD activation
Settings: 24 h

Row | Structure (SMILES) | TEAD-luciferase reporter activity (compound concentration: 200 nM) | TEAD-luciferase reporter activity (compound concentration: 2 uM) | TEAD-luciferase reporter activity (compound concentration: 10 uM)
1 | CN1[C@@H]2CC[C@H]1C[C@@H](NC(=O)c1cnc3ccccc3c1O)C2 | inactive: -0.765 | inactive: 0.916 | inactive: 0.0922
2 | CCCC[C@@H](NC(=O)[C@@H](Cc1ccccc1)NC(=O)[C@H](N)Cc1ccccc1)C(=O)N[C@H](CCCNC(=N)N)C(N)=O | inactive: -0.607 | inactive: -1.44 | inactive: 0.405
3 | CC(C)NC(=O)N1CCCC1C(=O)N1CCC(N2CCCC2=O)CC1 (centres undefined) | inactive: 0.352 |  | 
4 | O=C(C1CCCN1C(=O)Cc1cccc(Cl)c1)N1CCC(N2Cc3ccccc3C2=O)CC1 (centres undefined) | inactive: -3.01 |  | inactive: -0.58
5 | C=C(/C=N/NC(=N)N)NNC(=N)N [Mitoguazone] | inactive: 0.984 | inactive: -1.21 | inactive: -1.91
6 | N#Cc1ccc(Nc2ncnc3c2CCC3O)cc1 (centres undefined) | inactive: -0.59 | inactive: -0.778 | inactive: 0.239
7 | CCCOC(=O)Cc1ccc(OCC(=O)N(CC)CC)c(OC)c1 | inactive: 0.522 | inactive: 0.651 | inactive: 3.98
8 | CCOCn1c([Se]c2cc(C)cc(C)c2)c(C(C)C)c(=O)[nH]c1=O | inactive: -0.281 | inactive: -0.344 | inactive: -0.506
9 | CCN(CC)C(=S)SC(=S)N(CC)CC | inactive: -0.513 | inactive: -1.16 | inactive: -3.66
10 | CC(Cc1ccc2c(c1)OCC(C(=O)O)O2)NCC(O)c1cccc(Cl)c1 (centres undefined) | inactive: -0.668 | inactive: -1.96 | inactive: -1.02
11 | Cc1ccccc1-n1c(C)nc2ccccc2c1=O | inactive: 0.736 |  | inactive: -1.43
12 | Cc1ccccc1-n1c(C)nc2ccccc2c1=O [Quaalude] |  | inactive: -1.07 | 
13 | N#CC(CCN1CCC(C(=O)O)(c2ccccc2)C1)(c1ccccc1)c1ccccc1 (centres undefined) | inactive: -1.78 | inactive: -0.537 | inactive: -0.0626
14 | CC[C@@H]1/C=C/C=C/C[C@H](C)[C@@H](O)[C@](C)(O)C(=O)[C@H](C)[C@@H](O)[C@H](C)C(=O)[C@H](C)[C@@H](O)[C@H](C)/C=C/C(=O)O[C@H]2[C@@H](C)[C@@H](CC1)O[C@]1(O[C@H](C[C@H](C)O)[C@H](C)CC1=O)[C@@H]2C |  | inactive: -0.762 | 
15 | CC[C@@H]1/C=C/C=C/C[C@H](C)[C@@H](O)[C@](C)(O)C(=O)[C@H](C)[C@@H](O)[C@H](C)C(=O)[C@H](C)[C@@H](O)[C@H](C)/C=C/C(=O)O[C@H]2[C@@H](C)[C@@H](CC1)O[C@]1(O[C@H](C[C@H](C)O)[C@H](C)CC1=O)[C@@H]2C [Oligomycin B] | inactive: 0.242 |  | inactive: 3.4
16 | Cc1c(N2C(=O)[C@@H]3[C@H](O)CCN3C2=O)ccc(C#N)c1Cl | inactive: 1.64 | inactive: -1.99 | inactive: 0.0664
17 | C[N+]1(C)C2CCC1CC(OC(=O)C(CO)c1ccccc1)C2 (centres undefined) |  | inactive: -1.25 | 
18 | C[N+]1(C)C2CCC1CC(OC(=O)C(CO)c1ccccc1)C2 (centres undefined) [Atropine methyl bromide] | inactive: 0.122 |  | active: 7.42

Row | Structure (SMILES) | TEAD-luciferase reporter activity (compound concentration: 200 nM) | TEAD-luciferase reporter activity (compound concentration: 2 uM) | TEAD-luciferase reporter activity (compound concentration: 10 uM)
19 | O=C(C1CCCN1C(=O)c1ccc(F)cc1)N1CCC(N2Cc3ccccc3C2=O)CC1 (centres undefined) | inactive: 0.703 |  | active: 7.79
20 | COc1ccc(CC(C)NCC(O)c2ccc(O)c(CO)c2)cc1 (centres undefined) | inactive: -0.124 | inactive: 2.48 | inactive: 1.14
21 | Cc1cc2c3c(c1)C(c1ccccc1)=NC(NC(=O)c1ccncc1)C(=O)N3CC2 (centres undefined) | inactive: 0.0322 | inactive: -0.505 | inactive: -0.166
22 | CC(C)C[C@H]1C(=O)N2CCC[C@H]2[C@]2(O)O[C@](NC(=O)[C@@H]3C=C4c5cccc6[nH]c(Br)c(c56)CC4N(C)C3)(C(C)C)C(=O)N12 (some centres undefined) [bromocriptine mesylate] | inactive: -0.314 | inactive: -1.18 | inactive: -1.73
23 | Cc1ccc(/N=C/N(C)/C=N/c2ccc(C)cc2C)c(C)c1 [Amitraz] | inactive: -0.906 | inactive: 1.76 | inactive: -0.613
24 | CN(C)C1CC(c2ccc(Cl)c(Cl)c2)c2ccccc21 (centres undefined) | inactive: -0.604 | inactive: -1.7 | inactive: -0.861
25 | CCOC(=O)Nc1ccc(NCc2ccc(F)cc2)cc1N [ezogabine] | inactive: -1.18 | inactive: 1.21 | active: 9.15
26 | C[C@]12CC[C@H](O)C[C@@H]1CC[C@@H]1[C@@H]2CC[C@]2(C)C(=O)CC[C@@H]12 | inactive: -0.537 | inactive: -0.22 | inactive: -0.903
27 | CC(O)(CNC(=O)C(F)(F)F)C(=O)Nc1ccc([N+](=O)[O-])c(C(F)(F)F)c1 (centres undefined) | inactive: -1.29 | inactive: -1.12 | inactive: 1.4
28 | N#CCCN [Beta-aminopropionitrile] |  | inactive: 0.571 | 
29 | N#CCCN [3-Aminopropionitrile fumarate] | inactive: -0.793 |  | inactive: 1.94
30 | O=C(Oc1ccc(Br)cc1)N1CCN2CCC1CC2 | inactive: -1.22 | inactive: 1.4 | inactive: 1.47
31 | C#C[C@]1(O)CC[C@H]2[C@@H]3CC[C@H]4Cc5nn(S(C)(=O)=O)cc5C[C@]4(C)[C@H]3CC[C@@]21C [Zanoterone] | inactive: 1.96 | inactive: -0.776 | inactive: 1.52
32 | CC(C)(C)OC(=O)c1ncn2c1[C@@H]1CCCN1C(=O)c1c(Br)cccc1-2 [Bretazenil] | inactive: -2.4 | inactive: 0.327 | inactive: 1.35
33 | O=C(CS(=O)C(c1ccccc1)c1ccccc1)NO (centres undefined) [adrafinil] | inactive: 1.01 | inactive: 0.00437 | inactive: 0.952
34 | O=C(N[C@@H]1CN2CCC1CC2)c1cc(Cl)cc2c1O[C@H]1CCCC[C@@H]21 | inactive: -2.15 | inactive: -1.81 | inactive: 0.386
35 | CC(O)(CS(=O)(=O)c1ccc(F)cc1)C(=O)Nc1ccc(C#N)c(C(F)(F)F)c1 (centres undefined) [bicalutamide] |  | inactive: -0.443 | 
36 | CC(O)(CS(=O)(=O)c1ccc(F)cc1)C(=O)Nc1ccc(C#N)c(C(F)(F)F)c1 (centres undefined) | inactive: -3.12 |  | inactive: 1.84

Some of the entries so far, with tabs:
Row	Structure (SMILES)	TEAD-luciferase reporter activity (compound concentration: 200 nM)	TEAD-luciferase reporter activity (compound concentration: 2 uM)	TEAD-luciferase reporter activity (compound concentration: 10 uM)
25	CCOC(=O)Nc1ccc(NCc2ccc(F)cc2)cc1N [ezogabine]	inactive: -1.18	inactive: 1.21	active: 9.15
26	C[C@]12CC[C@H](O)C[C@@H]1CC[C@@H]1[C@@H]2CC[C@]2(C)C(=O)CC[C@@H]12	inactive: -0.537	inactive: -0.22	inactive: -0.903

Reference: the supplement of paper PMC10735217
